Reference: the supplement of paper PMC12067093, “Discovery and optimisation of a covalent ligand for TRIM25 and its application to targeted protein ubiquitination” (Chemical Science, 2025)
This is one part of the list.

Compound: CC1Cc2ccccc2N1C(=O)C1CCCN(C1)C(=O)CCl (mixture of isomers) [TRIM25 ligand 11 (diastereomer mixture)]
Assay: probe-labelled cysteine peptide fold change vs DMSO (competition) (log2 fold change); higher = less target engagement (more negative = stronger competition)
Settings: THP-1, incubation time: 4 h
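Note: competitive chemoproteomic profiling in live THP-1 cells with an iodoacetamide desthiobiotin (IA-DTB) probe, comparing probe-labelled peptide intensities in compound-treated cells against DMSO-treated controls.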

Target | probe-labelled cysteine peptide fold change (10 µM) | probe-labelled cysteine peptide fold change (50 µM)
XRCC1_P18887_389_EWVLDCHR (UniProt P18887) | -0.00129 | 0.0797
ZBED4_O75132_599_KPTNLGTSCLLR (UniProt O75132) | 0.0177 | -0.0308
ZFAND1_Q8TCF1_217_LCHITSGEALPLDHTLETWIAK (UniProt Q8TCF1) | -0.0403 | -0.0232
ZC3HAV1L_Q96H79_121_DCWSTCTLSHDIHTPVNMQVLK (UniProt Q96H79) | -0.0523 | -0.0862
ZBTB14_O43829_215_VNCYGQEVESMETPESK (UniProt O43829) | 0.0401 | -0.356
ZC3H11A_O75152_588_GDVASCNTQVAEK (UniProt O75152) | -0.0193 | -0.169
ZBTB14_O43829_52_CVLAACSTYFK (UniProt O43829) | 0.0232 | 0.309
ZCCHC3_Q9NUD5_238_REQEDCWENFVVLGR (UniProt Q9NUD5) | 0.192 | 0.112
ZC3HAV1L_Q96H79_99_GECQACDQLHFCR (UniProt Q96H79) | -0.0102 | 0.0725
ZC3H12A_Q5D1E8_374_RPSPSSQSSSLLTESEQCSLDGK (UniProt Q5D1E8) | -0.0724 | -0.297
YBEY_P58557_121_ENEDYNDVLTVTATHGLCHLLGFTHGTEAEWQQMFQK (UniProt P58557) | 0.108 | 0.109
ZC3HAV1L_Q96H79_108_GECQACDQLHFCR (UniProt Q96H79) | 0.199 | 0.2
ZC3H4_Q9UPT8_448_AENCPYMHGDFPCK (UniProt Q9UPT8) | -0.0343 | 0.123
XPO4_Q9C0E2_54_SPFAVCK (UniProt Q9C0E2) | 0.0641 | 0.0485
ZFAND1_Q8TCF1_10+15_AELDIGQHCQVEHCR (UniProt Q8TCF1) | -0.0392 | 0.251
ZDHHC4_Q9NPG8_337_SNLQEIFLPAFPCHER (UniProt Q9NPG8) | 0.108 | -0.46
XPOT_O43592_650_QASLADCLNHAVGFASR (UniProt O43592) | 0.0855 | 0.048
ZBTB11_O95625_943_DYVPCK (UniProt O95625) | 0.0102 | 0.0157
XPOT_O43592_900_QTFDLADAQTVLALSECAVTLK (UniProt O43592) | 0.0433 | 0.155
YES1_P07947_255_LTTVCPTVKPQTQGLAK (UniProt P07947) | -0.0129 | -0.34
XPO7_Q9UIA9_123_LGWFDCQK (UniProt Q9UIA9) | -0.211 | 0.0544
YWHAQ_P27348_134_YLAEVACGDDRK (UniProt P27348) | -0.0228 | -0.0265
ZC3H12D_A2A288_260_KPKPPEPSWQHCPYGK (UniProt A2A288) | 0.0945 | 0.169

Looked up one by one from the entries so far:
Target | probe-labelled cysteine peptide fold change (10 µM) | probe-labelled cysteine peptide fold change (50 µM)
ZCCHC3_Q9NUD5_238_REQEDCWENFVVLGR (UniProt Q9NUD5) | 0.192 | 0.112
YWHAQ_P27348_134_YLAEVACGDDRK (UniProt P27348) | -0.0228 | -0.0265
XPO4_Q9C0E2_54_SPFAVCK (UniProt Q9C0E2) | 0.0641 | 0.0485

(continued)

Target | probe-labelled cysteine peptide fold change (10 µM) | probe-labelled cysteine peptide fold change (50 µM)
XRN2_Q9H0D6_296_HDELADSLPCAEGEFIFLR (UniProt Q9H0D6) | 0.409 | -0.0107
YTHDC2_Q9H6S0_25_QPAPGGGGGGGPSPCGPGGGGR (UniProt Q9H6S0) | -0.253 | -0.342
XRCC1_P18887_20_HVVSCSSQDSTHCAENLLK (UniProt P18887) | 0.168 | 0.00437
ZFAND1_Q8TCF1_28_QRDFLPFVCDDCSGIFCLEHR (UniProt Q8TCF1) | -0.0983 | -0.028
ZBTB7A_O95365_490_DGCNGVPSR (UniProt O95365) | -0.0599 | 0.0996
ZC3H7A_Q8IWR0_921_YMNGTCPEGNSCK (UniProt Q8IWR0) | -0.109 | -0.137
ZBTB2_Q8N680_296_VPLTLCSNAADLGK (UniProt Q8N680) | -0.0308 | -0.0339
ZCCHC3_Q9NUD5_277_HCDVLAVPVK (UniProt Q9NUD5) | 0.115 | 0.108
XPNPEP1_Q9NQW7_582+592_ECDWLNNYHLTCR (UniProt Q9NQW7) | 0.00244 | -0.126
XPO7_Q9UIA9_525_VSFASTDEQDAMDGELVCR (UniProt Q9UIA9) | 0.233 | 0.397
ZCCHC3_Q9NUD5_348_THMSGSCTQDR (UniProt Q9NUD5) | 0.131 | -0.318
ZC3H14_Q6PJT7_628_AFPNCK (UniProt Q6PJT7) | -0.203 | -0.201
ZBTB14_O43829_391_PFVCGSCTK (UniProt O43829) | 0.0479 | 0.00623
YKT6_O15498_66_EQDYLCHVYVR (UniProt O15498) | 0.048 | 0.0716
ZCCHC3_Q9NUD5_375_GIVCNLCGK (UniProt Q9NUD5) | -0.0111 | 0.0681
ZC3H13_Q5T200_1643_TTCHAPGHEK (UniProt Q5T200) | -0.0244 | -0.0669
YY1AP1_Q9H869_734_QCQEGLSENSAYR (UniProt Q9H869) | -0.00384 | 0.0743
ZCCHC7_Q8N3Z6_296_MLDHSCLFR (UniProt Q8N3Z6) | -0.11 | -0.228
YJU2_Q9BW85_83_CLAEITFK (UniProt Q9BW85) | -0.00218 | 0.229
XPO6_Q96QU8_159_TTSEELACPR (UniProt Q96QU8) | 0.0366 | -0.0732
XPO4_Q9C0E2_492_IAAEHCIPLLTSLLEER (UniProt Q9C0E2) | 0.157 | -0.117
ZC3H14_Q6PJT7_641_CLFVHPNCK (UniProt Q6PJT7) | -0.091 | -0.0988
XRN1_Q8IZH2_1104_PHLLYRPLEQQHGVIPDRDAEFCLFDR (UniProt Q8IZH2) | -0.0497 | 0.131

Target | probe-labelled cysteine peptide fold change (10 µM) | probe-labelled cysteine peptide fold change (50 µM)
YY1_P25490_390_IHTGDRPYVCPFDGCNK (UniProt P25490) | 0.0873 | 0.212
ZEB2_O60315_583_MIENHNISTPFSCQFCK (UniProt O60315) | -0.183 | -0.268
YDJC_A8MPS7_119_EAVAAGDVDLPQVREELEAQLSCFR (UniProt A8MPS7) | 0.457 | 0.114
YWHAQ_P27348_25_LAEQAERYDDMATCMK (UniProt P27348) | -0.53 | -0.458
ZC3H14_Q6PJT7_647+652_CTKPDCPFTHVSR (UniProt Q6PJT7) | 0.0281 | -0.237
ZC3HC1_Q86WB0_5_AAPCEGQAFAVGVEK (UniProt Q86WB0) | 0.0638 | -0.0821
YARS_P54577_67_AGCEVTILFADLHAYLDNMK (UniProt P54577) | 0.171 | 0.25
XRCC1_P18887_362_DSTHLICAFANTPK (UniProt P18887) | -0.162 | -0.411
XPO1_O14980_498_NLNTLCWAIGSISGAMHEEDEK (UniProt O14980) | 0.0218 | 0.0431
YAE1_Q9NRH1_143_SITPPSHVVDLLDSIEDMDLCHVVPAEK (UniProt Q9NRH1) | 0.00827 | -0.115
ZC3H7A_Q8IWR0_149_CSLAVPQDEHVIK (UniProt Q8IWR0) | 0.0297 | -0.053
ZCCHC3_Q9NUD5_372+375_GIVCNLCGK (UniProt Q9NUD5) | -0.0208 | 0.0519
ZBTB34_Q8NCN2_32_LCDIIVHIQGQPFR (UniProt Q8NCN2) | 0.0544 | 0.302
YDJC_A8MPS7_18_LVVTADDFGYCPR (UniProt A8MPS7) | -0.0312 | 0.0877
YDJC_A8MPS7_212_WTDAFVGLSTCGR (UniProt A8MPS7) | -0.155 | -0.34
ZBTB7B_O15156_23_GSPEDDLIGIPFPDHSSELLSCLNEQR (UniProt O15156) | -0.00361 | -0.227
ZC3H10_Q96K80_140_EEVPICR (UniProt Q96K80) | 0.122 | 0.208
ZC3H12B_Q5HYM0_361_KQPCPYGK (UniProt Q5HYM0) | -0.119 | -0.0946
XPNPEP3_Q9NQH7_492_IEDDVVVTQDSPLILSADCPK (UniProt Q9NQH7) | -0.0184 | -0.0977
XRN2_Q9H0D6_736_FSLDEEAILPDQIVCSPVPMLR (UniProt Q9H0D6) | 0.234 | 0.0197
ZFAND1_Q8TCF1_15_AELDIGQHCQVEHCR (UniProt Q8TCF1) | 0.0342 | 0.0973
ZC3H12D_A2A288_111_ETFSCR (UniProt A2A288) | -0.0665 | 0.136
